These results are taken from PubChem BioAssay AID248 (DTP/NCI, 2004).

The subject of this assay is L1210 leukemia ip in BDF1 mice, survival T/C. In words: NCI In Vivo Anticancer Drug Screen. Data for tumor model L1210 Leukemia (intraperitoneal) in B6D2F1 (BDF1) mice. The settings on record: higher T/C = longer survival.
Setting [1] is: T/C endpoint: mean survival time, dose: 100.0 mg/kg/injection, schedule: Q04DX002 (ip), vehicle: Klucel (hydroxypropylcellulose) (HPC).
[2] abbreviates: T/C endpoint: mean survival time, dose: 200.0 mg/kg/injection, schedule: Q04DX002 (ip), vehicle: Klucel (hydroxypropylcellulose) (HPC).
The mark [3] stands for this setting: T/C endpoint: mean survival time, dose: 400.0 mg/kg/injection, schedule: Q04DX002 (ip), vehicle: Klucel (hydroxypropylcellulose) (HPC).
Where [4] appears, read: T/C endpoint: mean survival time, dose: 400.0 mg/kg/injection, schedule: Q01DX001 (ip), vehicle: saline.
Setting [5] is: T/C endpoint: mean survival time, dose: 100.0 mg/kg/injection, schedule: Q04DX003 (ip), vehicle: saline.
[6] abbreviates: T/C endpoint: mean survival time, dose: 200.0 mg/kg/injection, schedule: Q04DX003 (ip), vehicle: saline.
Setting [7] is: T/C endpoint: mean survival time, dose: 400.0 mg/kg/injection, schedule: Q04DX003 (ip), vehicle: saline.
The mark [8] stands for this setting: T/C endpoint: mean survival time, dose: 400.0 mg/kg/injection, schedule: Q01DX009 (ip), vehicle: Klucel (hydroxypropylcellulose) (HPC).
[9] abbreviates: T/C endpoint: mean survival time, dose: 400.0 mg/kg/injection, schedule: Q04DX003 (ip), vehicle: Klucel (hydroxypropylcellulose) (HPC).
Where [10] appears, read: T/C endpoint: mean survival time, dose: 100.0 mg/kg/injection, schedule: Q01DX001 (ip), vehicle: carboxymethylcellulose (CMC).
[11] abbreviates: T/C endpoint: mean survival time, dose: 400.0 mg/kg/injection, schedule: Q01DX001 (ip), vehicle: carboxymethylcellulose (CMC).
[12] abbreviates: T/C endpoint: mean survival time, dose: 200.0 mg/kg/injection, schedule: Q04DX003 (ip), vehicle: saline with Tween-80.
Where [13] appears, read: T/C endpoint: mean survival time, dose: 400.0 mg/kg/injection, schedule: Q04DX003 (ip), vehicle: saline with Tween-80.
[14] abbreviates: T/C endpoint: mean survival time, dose: 200.0 mg/kg/injection, schedule: Q01DX001 (ip), vehicle: carboxymethylcellulose (CMC).

The list is a part of this screen's results and no random one: it gathers tests that were run many times, whatever their T/C, doses with no T/C, and many T/C values between a quarter and a half above the control. Other doses and runs of a compound stand elsewhere. T/C: endpoint of the treated group in % of that of the vehicle group. Some doses have a count of surviving animals in place of a T/C: the source files T/C as zero there, which appears to mark a toxic dose or a test without result, not a measured value. Some doses without a T/C left all or most animals alive at the check, yet need not have been tolerated: the source hardly ever lists a survival T/C far under the control, and the zero likely stands for such cases as well. Counts of survivors are from the toxicity check (mostly the fifth day) where no day follows; animals may have died later. Schedule codes are those of the source, read here as Q, the interval in days (D) or hours (H), X, the number of doses. Counts like (3×) give the number of equal values in this list. Some entries hold several experiments; the values are given in rising order. Some schedule codes hold Z or #, which are not explained here. For survival time, the PubChem record calls one and a half times the control and up active, and a quarter to a half above the control has no call in these data; cut-offs in other NCI protocols can differ.

Consider `[CH3][Sn]([CH3])([CH3])[O]C(=O)CCl`, for which the survivor count (T/C endpoint: mean survival time, dose: 3.12 mg/kg/injection, schedule: Q01DX009 (ip), vehicle: Klucel (hydroxypropylcellulose) (HPC)) is given as 0 of 6; the survivor count (T/C endpoint: mean survival time, dose: 3.12 mg/kg/injection, schedule: Q04DX002 (ip), vehicle: Klucel (hydroxypropylcellulose) (HPC)) is 1 of 3; the survivor count (T/C endpoint: mean survival time, dose: 6.25 mg/kg/injection, schedule: Q04DX002 (ip), vehicle: Klucel (hydroxypropylcellulose) (HPC)) was 0 of 3; the survivor count (T/C endpoint: mean survival time, dose: 12.5 mg/kg/injection, schedule: Q04DX002 (ip), vehicle: Klucel (hydroxypropylcellulose) (HPC)) was 0 of 3; the survivor count (T/C endpoint: mean survival time, dose: 25.0 mg/kg/injection, schedule: Q04DX002 (ip), vehicle: Klucel (hydroxypropylcellulose) (HPC)) is reported as 0 of 3; the survivor count (T/C endpoint: mean survival time, dose: 50.0 mg/kg/injection, schedule: Q04DX002 (ip), vehicle: Klucel (hydroxypropylcellulose) (HPC)) is listed as 0 of 3. Besides, the survivor count by setting is: under setting [1], 0 of 3; under setting [2], 0 of 3; under setting [3], 0 of 3.

With `O=C(O)c1c(O)c2cc([N+](=O)[O-])ccc2oc1=O`, the survivor count was 1 of 3 (T/C endpoint: mean survival time, dose: 200.0 mg/kg/injection, schedule: Q04DX002 (ip), vehicle: saline with Tween-80) and 0 of 3 (T/C endpoint: mean survival time, dose: 400.0 mg/kg/injection, schedule: Q04DX002 (ip), vehicle: saline with Tween-80).

Take `CO[C@H]1/C=C/O[C@@]2(C)Oc3c(C)c(O)c4c(O)c(c(/C=N/N5C(C)CN(Cc6ccccc6)CC5C)c(O)c4c3C2=O)NC(=O)/C(C)=C\C=C\[C@H](C)[C@H](O)[C@@H](C)[C@@H](O)[C@@H](C)[C@H](OC(C)=O)[C@@H]1C` (some centres not stated): the survivor count (T/C endpoint: median survival time, dose: 200.0 mg/kg/injection, schedule: Q01DX005 (ip), vehicle: other) is recorded as 7 of 8. For the same molecule, the T/C (T/C endpoint: median survival time, dose: 800.0 mg/kg/injection, schedule: Q01DX005 (oral), vehicle: Klucel (hydroxypropylcellulose) (HPC)) is 128 % of control.

On to `ClCC1CC2CC1C1OC21` (configuration not stated), for which the survivor count (T/C endpoint: mean survival time, dose: 200.0 mg/kg/injection, schedule: Q01DX001 (ip), vehicle: saline) was 0 of 4 and the survivor count under setting [4] is 0 of 4.

In the case of `C=CCNC(=S)Nc1cccc(C(C)OC(=O)NC(C)(C)C)c1` (configuration not stated), the survivor count (T/C endpoint: mean survival time, dose: 400.0 mg/kg/injection, schedule: Q01DX009 (ip), vehicle: saline with Tween-80) is given as 0 of 6.

Turning to `CCOC(=O)N(Cl)Cl`, the survivor count is reported as 0 of 6 under setting [5], 0 of 6 under setting [6] and 0 of 6 under setting [7].

With `CCOC(OCC)c1nc(N)nc(N)c1-c1ccc(Cl)c(Cl)c1`, the T/C (T/C endpoint: mean survival time, dose: 200.0 mg/kg/injection, schedule: Q01DX009 (ip), vehicle: saline) is 136 % of control. For the same molecule, the survivor count under setting [4] was 1 of 6.

Consider `CCOc1ccc(/C=C/[N+](=O)[O-])cc1`, for which the survivor count reads like this: (T/C endpoint: mean survival time, dose: 100.0 mg/kg/injection, schedule: Q01DX009 (ip), vehicle: Klucel (hydroxypropylcellulose) (HPC)) 0 of 6 and 6 of 6; (T/C endpoint: mean survival time, dose: 200.0 mg/kg/injection, schedule: Q01DX009 (ip), vehicle: Klucel (hydroxypropylcellulose) (HPC)) 1 of 6 and 2 of 6; under setting [8], 0 of 6 (2×); under setting [9], 6 of 6.

For `CC(C#N)NCc1ccc2c(c1)OCO2` (configuration not stated), the survivor count is 2 of 4 under setting [10] and 0 of 4 under setting [11].

Turning to `O=C(Cl)C1C(c2ccccc2)C1c1ccccc1` (configuration not stated), the survivor count runs as follows: under setting [12], 2 of 6; under setting [13], 0 of 6.

For `NC(=O)C1C(=O)OC2(CC2)C1c1ccccc1` (configuration not stated), the survivor count under setting [4] was 3 of 4.

Regarding `COC(=O)c1ccc([N+](=O)[O-])o1`, the survivor count under setting [8] is given as 1 of 3.

In the case of `O=C1OCC/C1=C/OS(=O)(=O)C(F)(F)F`, the survivor count (T/C endpoint: mean survival time, dose: 200.0 mg/kg/injection, schedule: Q01DX009 (ip), vehicle: water) is 2 of 6.

Consider `CCc1c(C)nc(N)[nH]c1=O`, for which the survivor count under setting [13] was 2 of 6.

Regarding `CC1(C)C=C(C(Br)c2ccc(Cl)cc2)C(=O)c2ccccc21` (configuration not stated), the survivor count under setting [9] is reported as 6 of 6.

`C=Cn1cc[n+](Cc2ccccc2)c1C`: the survivor count is, setting by setting: under setting [1], 0 of 6; (T/C endpoint: mean survival time, dose: 100.0 mg/kg/injection, schedule: Q04DX002 (ip), vehicle: saline) 0 of 3 and 0 of 6; under setting [2], 0 of 6; (T/C endpoint: mean survival time, dose: 200.0 mg/kg/injection, schedule: Q04DX002 (ip), vehicle: saline) 0 of 3 and 0 of 6; under setting [3], 0 of 6; (T/C endpoint: mean survival time, dose: 400.0 mg/kg/injection, schedule: Q04DX002 (ip), vehicle: saline) 0 of 3 and 0 of 6.

Take `c1cc[c]([Pb]([c]2ccccc2)([c]2ccccc2)[n]2ccnc2)cc1`: the survivor count reads like this: (T/C endpoint: mean survival time, dose: 20.0 mg/kg/injection, schedule: Q01DX001 (ip), vehicle: other) 3 of 6; (T/C endpoint: mean survival time, dose: 40.0 mg/kg/injection, schedule: Q01DX001 (ip), vehicle: other) 2 of 6; (T/C endpoint: mean survival time, dose: 80.0 mg/kg/injection, schedule: Q01DX001 (ip), vehicle: other) 0 of 6; (T/C endpoint: mean survival time, dose: 100.0 mg/kg/injection, schedule: Q01DX001 (ip), vehicle: other) 1 of 6; (T/C endpoint: mean survival time, dose: 200.0 mg/kg/injection, schedule: Q01DX001 (ip), vehicle: other) 0 of 6; (T/C endpoint: mean survival time, dose: 400.0 mg/kg/injection, schedule: Q01DX001 (ip), vehicle: other) 1 of 6.

For the molecule `CCCC1=NNC(=O)C1(Br)Br`, the survivor count runs as follows: under setting [10], 2 of 4; under setting [14], 0 of 4; under setting [11], 0 of 4.

`c1ccc2c[n+](CC[n+]3ccc4ccccc4c3)ccc2c1`: the survivor count is on record as 1 of 6 (T/C endpoint: mean survival time, dose: 150.0 mg/kg/injection, schedule: Q04DX003 (ip), vehicle: saline) and 0 of 6 (T/C endpoint: mean survival time, dose: 300.0 mg/kg/injection, schedule: Q04DX003 (ip), vehicle: saline).

Take `NC(N)=NCCCC(N)C(=O)NCCCCCCNC(=O)C(N)CCCN=C(N)N` (configuration not stated): where the note is “T/C endpoint: mean survival time, dose: 300.0 mg/kg/injection, schedule: Q01DX Z (ip), vehicle: saline”, the survivor count was 2 of 6.

On to `CN(C)CCCNC(=S)S`, for which the survivor count is, setting by setting: (T/C endpoint: mean survival time, dose: 50.0 mg/kg/injection, schedule: Q04DX003 (ip), vehicle: saline) 3 of 6; under setting [5], 0 of 6; under setting [6], 0 of 6; under setting [7], 0 of 6.

With `CN(C)CCCN=Cc1ccc(O)cc1O.CN(C)CCCN=Cc1ccc(O)cc1O.[Ni+2]`, the survivor count is given as 2 of 6 (T/C endpoint: mean survival time, dose: 100.0 mg/kg/injection, schedule: Q04DX003 (ip), vehicle: saline with Tween-80); 1 of 6 under setting [12]; 0 of 6 under setting [13].

In the case of `CCOP(=S)(N1CCNCC1)N1CCNCC1`, the survivor count (T/C endpoint: mean survival time, dose: 300.0 mg/kg/injection, schedule: Q01DX009 (ip), vehicle: Klucel (hydroxypropylcellulose) (HPC)) was 0 of 6.

For `CC(=O)/C(C)=N\NC(=O)c1ccccn1`, the survivor count is on record as 5 of 6 (T/C endpoint: mean survival time, dose: 200.0 mg/kg/injection, schedule: Q01DX015 (ip), vehicle: water) and 2 of 4 (T/C endpoint: mean survival time, dose: 400.0 mg/kg/injection, schedule: Q01DX001 (ip), vehicle: water).

As to `NCCCNCC1C(c2ccccc2)C1c1ccccc1` (configuration not stated), the survivor count by setting is: under setting [1], 0 of 3; under setting [2], 0 of 3; under setting [3], 0 of 3.

For `O=C1c2ccccc2C(C2c3ccccc3C(=O)c3ccccc32)c2ccccc21`, under setting [14], the survivor count was 4 of 4.

In the case of `NC(=O)Nc1ccc2c(c1)Cc1cc(F)ccc1-2`, the T/C under setting [14] is 131 % of control.
